Experimental data from patent US8703419B2, “Method for diagnosis/prognosis of cancers using an epigenetic marker consisting of a specific single CpG site in TTP promoter and treatment of cancers by regulating its epigenetic status” (Korea Research Institute of Bioscience and Biotechnology, priority 2009, dated 2014).
For at least one compound, name, drawing or mass did not settle the structure.

How the values were obtained:
Format in all cases: cell-based, human
[1] = system: TTP mRNA in HCC cell lines; test: TTP mRNA expression by RT-PCR after DNA demethylating agent treatment; settings: 12 HCC cell lines, AzadC 2 mol/l for 72 hours
c-Myc mRNA = c-Myc mRNA level after TGFβ1 (RT-PCR); settings: SK-Hep1 cells; AzadC pretreatment 72 hours
Procedure: (§1) Total RNA was extracted from the HCC cell lines by using RNeasy mini kit (QIAGEN, USA). Distilled water was added to 1 μg of the total RNA and 1 μl of oligo-d(T) (Invitrogen, USA, 0.5 μg/μl) to make the total volume of the mixture 50 μl, followed by RT-PCR in AccuPower RT-premix (Bioneer, Korea). Before RT-PCR, cDNA was synthesized as follows: at 70° C. for 5 minutes, at 4° C. for 5 minutes, at 42° C. for 60 minutes, at 94° C. for 5 minutes, and at 4° C. for 5 minutes to produce cDNA. PCR was performed by using the obtained cDNA (3˜5 μl) or distilled water (negative control) as a template with the primer set as shown in Table 1 and PCR Master Mix (Promega, USA). PCR conditions were as follows: pre-denaturation at 95° C. for 5 minutes, denaturation at 95° C. for 45 seconds, annealing at 65° C. for […], polymerization at 72° C. for 45 seconds, 35 cycles from denaturation to polymerization, final extension at 72° C. for 5 minutes, and cooling at 4° C. The amplified product was quantified via standardization with β-actin.
SK-Hep1 and PLC/PRF/5 cells which had been pre-treated or not treated with AzadC for 72 hours were treated additionally with TGFβ1 for 0, 0.5, 1.0, 1.5, 2.0, and 2.5 hours. Then RT-PCR was performed with the cells by using the primer sets of Table 10 in the same manner as described in Example <1-2>.

[2] = system: RNAPII binding to the TTP locus; test: ChIP analysis of RNAPII binding to the TTP locus; settings: SK-Hep1 cells; AzadC pretreatment 72 hours; P<0.05
Description: To establish the molecular mechanism of epigenetic regulation of TTP, the present inventors estimated the levels of different forms of phosphorylated RNAPII (RNA polymerase II) proteins bound to the TTP locus by ChIP (chromatin immunoprecipitation) analysis, i.e., unphosphorylated form (unP) as a measure of transcriptional initiation, and those phosphorylated at serine 5 (pS5) and serine 2 (pS2) of the carboxy-terminal repeat domain as a measure of promoter escape/capping and transcriptional elongation, respectively.
(§2) ChIP analysis was performed using a specific assay kit (Millipore, USA) according to manufacturer's specifications. SK-Hep1 and PLC/PRF/5 cells were pre-treated or not treated with AzadC for 72 hours, to which TGFβ1 was additionally treated or not treated. The cells were treated with formaldehyde, leading to the binding of DNA to the protein (DNA conjugated protein), followed by cell lysis. After DNA fractionation, the antibody to RNAPII protein shown in Table 7 was added thereto, followed by reaction at 4° C. for overnight. The antibody was isolated by adding 50 μl of Protein A/G PLUS-Agarose. At this time, the DNA specifically bound to the antibody was purified. The purified DNA proceeded to PCR using the primer sets of Table 8.

[3] = system: acetylation of histones H3 and H4 at TRR; test: ChIP analysis of histone H3 and H4 acetylation at TRR; settings: SK-Hep1 cells; AzadC pretreatment 72 hours
Procedure: as §2
Chromatin is basically composed of histones and DNA. The histone status, that is, the methylation or acetylation status of histones is involved in the regulation of gene expression. Transcriptional activity is additionally dependent on the acetylation level of histones H3 and H4 in the promoter region. Moreover, TGFβ1-mediated transcription activation requires H3 acetylation (Ross S et al., EMBO J 25:4490-4502, 2006). Therefore, information about the transcriptional activity of the promoter region can be obtained by using the antibody against acetylated histone. […]

TTP promoter = TTP promoter luciferase reporter assay; settings: SK-Hep1 cells; AzadC treated 12 hours before transfection
Procedure: To confirm that TTP expression is directly controlled by methylation of the #2 CpG site, the present inventors examined the transcriptional activity of the TTP promoter region in relation to the methylation status of the #2 CpG site using luciferase reporter assays.
Luciferase assays were performed using the Promega Luciferase Assay System (Promega, USA), according to the manufacturer's protocol. Luciferase reporter constructs were generated by amplifying TTP promoter regions from normal human genomic DNA (BioChain, USA) using the primer sets shown in Table 5 according to the method of Example <1-2>.
As a result, wild-type promoter (WT), a single base-substituted promoter (C→T), and TRR-deleted promoter (Del) were constructed. These promoters were cloned into the KpnI/BglII sites of pGL3-basic vector (Promega, USA). Ligated products were amplified in E. coli. After purification, the ligated products were transfected into SK-Hep1 cells by using LipofectAMINE Plus reagent (Invitrogen). Specifically, the luciferase reporter constructs (0.25 μg) were co-transfected with a control plasmid (0.05 μg) encoding renilla into 1×10^5 cells/well in 12-well plates. At that time, AzadC was treated 12 hours before the transfection. After treating with TGFβ1, luciferase activities were measured using a luminometer (Berthold Lumat LB9501, Bad Wildbad, Germany). […]

[4] = system: TTP expression in PLC/PRF/5 and SK-Hep1 cells; test: TGFβ1-mediated TTP induction with or without AzadC (RT-PCR); settings: PLC/PRF/5 cells; AzadC pretreatment, TGFβ1 5 μg/l
Procedure: as §1
TGFβ1 (R&D systems, USA) was treated thereto at the concentration of 5 μg/l for 0, 0.5, 1, 1.5, 3, 6, and 12 hours.

[5] = system: TTP mRNA in HCC cell lines; test: DNA demethylating agent dose dependent TTP mRNA expression (RT-PCR); settings: AzadC 1, 2, and 5 μM

## Nc1ncn([C@H]2C[C@H](O)[C@@H](CO)O2)c(=O)n1 [AzadC, 5-Aza-2-deoxycytidine]
[1]
  TTP expression: significant increase in TTP expression in most cell lines
c-Myc mRNA
  c-Myc mRNA down-regulation by TGFβ1: restored in SK-Hep1 cells upon AzadC pretreatment
[2]
  TGFβ1-dependent increase of RNAPII binding: AzadC pretreatment was required
[3]
  TGFβ1-dependent increase in H3 and H4 acetylation at TRR: required AzadC pretreatment
TTP promoter
  basal-level activity of the TTP promoter, luciferase: enhanced the basal-level activity of the TTP promoter
  responsiveness of TTP promoter to TGFβ1, luciferase: restored its responsiveness to TGFβ1
[4]
  influence of AzadC on TGFβ1-induced TTP expression: without the influence of AzadC
[5]; PLC/PRF/5 cells
  AzadC-dependent increase in TTP expression: did not exhibit an AzadC-dependent increase in TTP expression
[5]; SK-Hep1, Hep3B and SNU182 cell lines
  induction of TTP expression by AzadC: dose dependency of the induction of TTP expression
